These are yes or no findings as the source states them, for the method shown. Some entries that bind do so weakly or less than the wild type.
Legend:
[1] = target: soluble collagen type II (human) (UniProt P02458); assay: SPR
[2] = target: soluble collagen type III (pepsin-digested, non-fibrillar; BD Biosciences) (human) (UniProt P02461); assay: SPR
[3] = target: soluble collagen type II (human) (UniProt P02458); assay: SPR (FIG. 1C, collagen I-III)
[4] = target: soluble collagen type III (pepsin-digested, non-fibrillar; BD Biosciences) (human) (UniProt P02461); assay: SPR (FIG. 1C, collagen I-III)
[5] = target: soluble collagen type III (pepsin-digested, non-fibrillar; BD Biosciences) (human) (UniProt P02461); assay: SPR, Aegyptin injected over immobilized collagen type III
[6] = target: soluble collagen type II (human) (UniProt P02458); assay: SPR, Aegyptin injected over immobilized matrix proteins; concentration not given
[7] = target: soluble collagen type III (pepsin-digested, non-fibrillar; BD Biosciences) (human) (UniProt P02461); assay: as above
[8] = target: soluble collagen type III (pepsin-digested, non-fibrillar; BD Biosciences) (human) (UniProt P02461); assay: ELISA, blocking: coated collagen type III preincubated with Aegyptin, then 3 nM vWf, detected with anti-vWf
[9] = target: recombinant GPVI (UniProt Q9HCN6); assay: SPR, collagen type I injected over immobilized GPVI
[10] = target: recombinant GPVI (UniProt Q9HCN6); assay: SPR, collagen type I preincubated with buffer and injected over immobilized GPVI

Chains of the proteins cited; added tags and fusions are not shown. Lines headed by an entry give the natural chain unless they say otherwise; changes in a name come on top. Residues count along the entry.
UniProt P02458, residues 201-1214: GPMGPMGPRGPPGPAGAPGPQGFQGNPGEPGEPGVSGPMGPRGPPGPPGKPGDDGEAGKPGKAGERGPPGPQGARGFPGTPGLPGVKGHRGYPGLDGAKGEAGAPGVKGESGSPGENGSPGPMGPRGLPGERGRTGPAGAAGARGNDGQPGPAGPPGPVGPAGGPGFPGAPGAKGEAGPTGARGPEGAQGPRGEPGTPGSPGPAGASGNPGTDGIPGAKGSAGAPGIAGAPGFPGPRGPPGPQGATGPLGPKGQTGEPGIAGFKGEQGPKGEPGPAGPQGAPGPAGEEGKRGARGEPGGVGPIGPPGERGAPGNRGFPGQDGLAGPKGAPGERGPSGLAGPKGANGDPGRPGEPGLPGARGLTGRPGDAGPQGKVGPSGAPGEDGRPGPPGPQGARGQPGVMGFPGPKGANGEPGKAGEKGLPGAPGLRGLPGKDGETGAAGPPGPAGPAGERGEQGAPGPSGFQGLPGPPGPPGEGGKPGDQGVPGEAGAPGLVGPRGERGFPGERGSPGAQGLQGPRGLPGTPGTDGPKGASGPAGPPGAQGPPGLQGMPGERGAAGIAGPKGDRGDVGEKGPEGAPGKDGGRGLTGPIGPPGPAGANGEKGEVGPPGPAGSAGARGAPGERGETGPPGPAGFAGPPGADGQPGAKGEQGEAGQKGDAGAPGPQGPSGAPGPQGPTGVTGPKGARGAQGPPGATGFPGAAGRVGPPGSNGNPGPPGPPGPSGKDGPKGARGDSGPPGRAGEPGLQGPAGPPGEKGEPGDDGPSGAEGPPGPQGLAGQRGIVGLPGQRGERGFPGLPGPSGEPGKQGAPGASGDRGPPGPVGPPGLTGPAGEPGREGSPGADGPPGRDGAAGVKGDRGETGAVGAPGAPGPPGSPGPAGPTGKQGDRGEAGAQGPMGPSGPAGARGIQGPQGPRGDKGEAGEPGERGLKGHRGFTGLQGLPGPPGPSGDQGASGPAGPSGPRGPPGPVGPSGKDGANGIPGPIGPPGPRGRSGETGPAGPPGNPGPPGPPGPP
UniProt P02461, residues 168-1196: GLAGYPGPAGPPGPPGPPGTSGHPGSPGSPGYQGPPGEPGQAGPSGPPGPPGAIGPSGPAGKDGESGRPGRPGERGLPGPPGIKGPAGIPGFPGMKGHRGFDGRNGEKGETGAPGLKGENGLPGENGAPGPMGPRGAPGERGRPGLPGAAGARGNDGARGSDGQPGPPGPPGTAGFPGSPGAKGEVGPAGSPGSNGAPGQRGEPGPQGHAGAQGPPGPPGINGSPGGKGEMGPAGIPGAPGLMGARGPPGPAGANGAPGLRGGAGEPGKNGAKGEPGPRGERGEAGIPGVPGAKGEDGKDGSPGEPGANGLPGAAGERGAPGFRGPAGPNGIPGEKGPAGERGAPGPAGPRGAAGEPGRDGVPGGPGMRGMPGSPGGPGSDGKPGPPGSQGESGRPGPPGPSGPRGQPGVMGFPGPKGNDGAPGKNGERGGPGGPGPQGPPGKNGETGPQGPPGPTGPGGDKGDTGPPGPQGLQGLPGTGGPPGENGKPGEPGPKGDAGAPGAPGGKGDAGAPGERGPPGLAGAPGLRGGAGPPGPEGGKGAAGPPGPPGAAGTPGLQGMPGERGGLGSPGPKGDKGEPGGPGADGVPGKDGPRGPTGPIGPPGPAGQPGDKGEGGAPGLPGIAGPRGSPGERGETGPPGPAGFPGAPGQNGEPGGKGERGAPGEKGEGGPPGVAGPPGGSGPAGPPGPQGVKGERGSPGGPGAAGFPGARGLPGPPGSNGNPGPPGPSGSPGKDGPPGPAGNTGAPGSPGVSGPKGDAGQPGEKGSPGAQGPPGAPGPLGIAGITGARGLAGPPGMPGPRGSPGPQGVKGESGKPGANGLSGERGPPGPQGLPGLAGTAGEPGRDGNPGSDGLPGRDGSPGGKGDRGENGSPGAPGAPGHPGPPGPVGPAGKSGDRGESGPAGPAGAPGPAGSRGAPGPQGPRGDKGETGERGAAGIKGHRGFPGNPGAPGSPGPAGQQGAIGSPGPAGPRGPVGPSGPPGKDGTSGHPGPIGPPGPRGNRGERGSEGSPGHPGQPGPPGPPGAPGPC
UniProt Q9HCN6, residues 21-267: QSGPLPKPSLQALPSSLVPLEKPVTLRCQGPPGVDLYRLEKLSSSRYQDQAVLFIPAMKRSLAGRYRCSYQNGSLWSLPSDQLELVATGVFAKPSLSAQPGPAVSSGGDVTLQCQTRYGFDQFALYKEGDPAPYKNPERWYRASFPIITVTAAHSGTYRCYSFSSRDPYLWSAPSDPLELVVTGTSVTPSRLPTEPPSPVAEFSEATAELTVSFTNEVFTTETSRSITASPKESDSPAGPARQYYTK
UniProt O01949: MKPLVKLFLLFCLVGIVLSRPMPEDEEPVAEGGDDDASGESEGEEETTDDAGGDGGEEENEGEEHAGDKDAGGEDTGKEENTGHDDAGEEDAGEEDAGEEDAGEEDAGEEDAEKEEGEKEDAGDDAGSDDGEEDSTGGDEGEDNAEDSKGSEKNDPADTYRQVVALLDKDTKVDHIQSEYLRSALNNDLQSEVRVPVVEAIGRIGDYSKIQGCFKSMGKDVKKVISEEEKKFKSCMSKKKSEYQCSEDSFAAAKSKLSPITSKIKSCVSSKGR
UniProt P02452: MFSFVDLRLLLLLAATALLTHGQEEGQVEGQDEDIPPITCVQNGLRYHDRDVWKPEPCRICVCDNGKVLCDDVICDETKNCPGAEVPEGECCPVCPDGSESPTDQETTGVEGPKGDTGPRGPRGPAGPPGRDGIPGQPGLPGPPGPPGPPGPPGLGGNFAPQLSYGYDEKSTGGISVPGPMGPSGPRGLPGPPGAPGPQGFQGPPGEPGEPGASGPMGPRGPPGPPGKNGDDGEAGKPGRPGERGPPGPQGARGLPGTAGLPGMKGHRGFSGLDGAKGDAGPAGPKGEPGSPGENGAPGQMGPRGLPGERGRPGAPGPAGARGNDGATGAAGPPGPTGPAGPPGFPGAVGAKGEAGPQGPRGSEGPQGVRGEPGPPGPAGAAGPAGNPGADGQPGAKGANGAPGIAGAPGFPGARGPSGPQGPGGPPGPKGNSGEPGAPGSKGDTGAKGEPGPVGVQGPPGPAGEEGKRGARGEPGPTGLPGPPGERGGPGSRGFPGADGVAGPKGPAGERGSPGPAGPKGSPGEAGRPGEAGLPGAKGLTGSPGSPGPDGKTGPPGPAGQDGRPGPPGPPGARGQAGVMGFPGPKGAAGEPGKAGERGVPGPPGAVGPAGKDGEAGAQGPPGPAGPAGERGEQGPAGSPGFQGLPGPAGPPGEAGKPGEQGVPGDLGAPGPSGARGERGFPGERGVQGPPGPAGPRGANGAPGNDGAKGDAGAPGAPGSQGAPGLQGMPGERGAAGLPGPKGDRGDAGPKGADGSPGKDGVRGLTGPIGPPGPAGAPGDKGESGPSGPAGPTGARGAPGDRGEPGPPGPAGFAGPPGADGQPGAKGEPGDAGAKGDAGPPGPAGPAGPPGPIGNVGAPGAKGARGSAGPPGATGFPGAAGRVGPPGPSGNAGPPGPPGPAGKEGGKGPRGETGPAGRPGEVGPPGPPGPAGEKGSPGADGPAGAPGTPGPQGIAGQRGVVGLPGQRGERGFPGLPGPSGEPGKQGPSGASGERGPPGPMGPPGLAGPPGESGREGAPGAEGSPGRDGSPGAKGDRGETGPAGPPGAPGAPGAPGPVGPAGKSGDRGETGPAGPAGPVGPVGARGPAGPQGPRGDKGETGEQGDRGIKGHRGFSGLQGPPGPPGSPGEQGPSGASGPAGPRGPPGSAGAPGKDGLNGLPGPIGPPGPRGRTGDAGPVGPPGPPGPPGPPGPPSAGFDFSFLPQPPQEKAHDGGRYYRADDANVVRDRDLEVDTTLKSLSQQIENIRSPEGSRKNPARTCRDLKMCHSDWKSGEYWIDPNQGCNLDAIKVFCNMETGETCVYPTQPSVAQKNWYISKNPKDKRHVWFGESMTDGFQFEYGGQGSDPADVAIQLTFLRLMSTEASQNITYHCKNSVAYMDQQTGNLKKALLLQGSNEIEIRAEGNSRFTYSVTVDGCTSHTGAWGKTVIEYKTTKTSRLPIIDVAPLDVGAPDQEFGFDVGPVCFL

Measured: binding

recombinant Aegyptin (from UniProt O01949 20-273)
not listed: [9] | [10]
binds: all other assays above

soluble collagen type I (pepsin-digested, non-fibrillar, triple helical; BD Biosciences) (from UniProt P02452 179-1192; P08123 91-1104)
binds: [9] | [10]

From patent US20130123349A1
